Laboratory results reported in PMC4764564.

T1: PDZ domain from MPP2 (mouse) (UniProt Q9WV34)
T1 sequence: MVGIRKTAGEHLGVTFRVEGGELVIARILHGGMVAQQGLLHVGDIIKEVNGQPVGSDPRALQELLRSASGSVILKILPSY

T2: GST-MPP2 SH3-HOOK-GK domain (216-552) (mouse) (UniProt Q9WV34)
T2 sequence: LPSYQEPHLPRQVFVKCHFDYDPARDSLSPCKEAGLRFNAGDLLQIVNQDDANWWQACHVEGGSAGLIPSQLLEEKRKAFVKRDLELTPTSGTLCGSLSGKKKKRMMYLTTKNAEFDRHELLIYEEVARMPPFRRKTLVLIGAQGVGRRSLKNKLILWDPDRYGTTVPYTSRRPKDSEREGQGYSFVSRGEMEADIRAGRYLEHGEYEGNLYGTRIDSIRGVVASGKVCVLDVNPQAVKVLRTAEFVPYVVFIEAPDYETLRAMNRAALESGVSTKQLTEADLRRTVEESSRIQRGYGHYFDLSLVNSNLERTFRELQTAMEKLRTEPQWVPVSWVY

T3: GST-SAP97 SH3-HOOK-GK domain (577-927) (mouse) (UniProt Q811D0)
T3 sequence: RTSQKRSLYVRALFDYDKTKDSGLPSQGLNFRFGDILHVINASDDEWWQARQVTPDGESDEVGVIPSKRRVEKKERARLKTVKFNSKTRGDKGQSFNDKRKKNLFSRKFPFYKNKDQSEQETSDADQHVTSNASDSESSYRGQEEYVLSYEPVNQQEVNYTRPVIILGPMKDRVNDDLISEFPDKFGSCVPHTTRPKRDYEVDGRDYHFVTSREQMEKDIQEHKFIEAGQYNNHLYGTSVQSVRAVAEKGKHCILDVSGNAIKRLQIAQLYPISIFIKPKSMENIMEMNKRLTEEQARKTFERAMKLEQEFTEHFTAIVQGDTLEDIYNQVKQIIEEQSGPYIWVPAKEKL


Columns and labels:
[1] = biological target: T1, PDZ domain from MPP2 (mouse); assay: pull-down; PDZ domain from MPP2 tested with the N-terminal domain of SK2-L; told in the text only, no figure and no construct given
[2] = biological target: T2, GST-MPP2 SH3-HOOK-GK domain (216-552) (mouse); assay: pull-down; GST-fusion baits bound from bacterial lysate to glutathione agarose beads and washed; incubated at 4°C overnight with bacterial cell lysate expressing the His-tagged prey; PWB (20 mM HEPES pH 7.8, 10% glycerol, 100 mM KCl, 0.1 mM EDTA, 0.1 mM DTT, 0.1% Igepal CA-630); blot probed with anti-His; only the target purified
[3] = biological target: T3, GST-SAP97 SH3-HOOK-GK domain (577-927) (mouse); assay: as above
[4] = biological target: SK2-S plus SK2-L, co-expressed (SK2-containing channels); assay: co-IP; HEK293 cells co-transfected; lysis in 20 mM HEPES pH 7.5, 150 mM NaCl, 10% glycerol, 2 mM EDTA, 1% beta-D-dodecyl maltoside; anti-SK2 (guinea pig), anti-GluA1 or control IgG with protein A/G agarose overnight at 4°C; Western blot

Molecule | binding [1] | binding [2] | binding [3] | binding [4]
His-tagged N-terminal domain of SK2-L (67-273) (domain or fragment) | no binding | binds | no binding | –
C8-MPP2 (protein, UniProt Q9WV34-1 1-552) MPVAATNSESAMQQVLDNLGSLPNATGAAELDLIFLRGIMESPIVRSLAKAHERLEETKLEAVRDNNLELVQEILRDLAELAEQSSTAAELARILQEPHFQSLLETHDSVASKTYETPPPSPGLDPTFSNQPVPPDAVRMVGIRKTAGEHLGVTFRVEGGELVIARILHGGMVAQQGLLHVGDIIKEVNGQPVGSDPRALQELLRSASGSVILKILPSYQEPHLPRQVFVKCHFDYDPARDSLSPCKEAGLRFNAGDLLQIVNQDDANWWQACHVEGGSAGLIPSQLLEEKRKAFVKRDLELTPTSGTLCGSLSGKKKKRMMYLTTKNAEFDRHELLIYEEVARMPPFRRKTLVLIGAQGVGRRSLKNKLILWDPDRYGTTVPYTSRRPKDSEREGQGYSFVSRGEMEADIRAGRYLEHGEYEGNLYGTRIDSIRGVVASGKVCVLDVNPQAVKVLRTAEFVPYVVFIEAPDYETLRAMNRAALESGVSTKQLTEADLRRTVEESSRIQRGYGHYFDLSLVNSNLERTFRELQTAMEKLRTEPQWVPVSWVY | – | – | – | binds

These are yes or no findings as the source states them, for the method shown. In cells and extracts the contact can be indirect. For some of these results: Binding calls can cover weak binding; strength is not graded here. For some of these results: Sequences can lack the tags named with a protein.
